Results from publication PMC5227109.
These are yes or no findings as the source states them, for the method shown. Some results given as binding are weak or reduced against the parent protein; the word gives no strength.

T1: S. cerevisiae Smc3, recombinant (the Smc3 chain of m1) (S. cerevisiae) (UniProt P47037)
T1 sequence: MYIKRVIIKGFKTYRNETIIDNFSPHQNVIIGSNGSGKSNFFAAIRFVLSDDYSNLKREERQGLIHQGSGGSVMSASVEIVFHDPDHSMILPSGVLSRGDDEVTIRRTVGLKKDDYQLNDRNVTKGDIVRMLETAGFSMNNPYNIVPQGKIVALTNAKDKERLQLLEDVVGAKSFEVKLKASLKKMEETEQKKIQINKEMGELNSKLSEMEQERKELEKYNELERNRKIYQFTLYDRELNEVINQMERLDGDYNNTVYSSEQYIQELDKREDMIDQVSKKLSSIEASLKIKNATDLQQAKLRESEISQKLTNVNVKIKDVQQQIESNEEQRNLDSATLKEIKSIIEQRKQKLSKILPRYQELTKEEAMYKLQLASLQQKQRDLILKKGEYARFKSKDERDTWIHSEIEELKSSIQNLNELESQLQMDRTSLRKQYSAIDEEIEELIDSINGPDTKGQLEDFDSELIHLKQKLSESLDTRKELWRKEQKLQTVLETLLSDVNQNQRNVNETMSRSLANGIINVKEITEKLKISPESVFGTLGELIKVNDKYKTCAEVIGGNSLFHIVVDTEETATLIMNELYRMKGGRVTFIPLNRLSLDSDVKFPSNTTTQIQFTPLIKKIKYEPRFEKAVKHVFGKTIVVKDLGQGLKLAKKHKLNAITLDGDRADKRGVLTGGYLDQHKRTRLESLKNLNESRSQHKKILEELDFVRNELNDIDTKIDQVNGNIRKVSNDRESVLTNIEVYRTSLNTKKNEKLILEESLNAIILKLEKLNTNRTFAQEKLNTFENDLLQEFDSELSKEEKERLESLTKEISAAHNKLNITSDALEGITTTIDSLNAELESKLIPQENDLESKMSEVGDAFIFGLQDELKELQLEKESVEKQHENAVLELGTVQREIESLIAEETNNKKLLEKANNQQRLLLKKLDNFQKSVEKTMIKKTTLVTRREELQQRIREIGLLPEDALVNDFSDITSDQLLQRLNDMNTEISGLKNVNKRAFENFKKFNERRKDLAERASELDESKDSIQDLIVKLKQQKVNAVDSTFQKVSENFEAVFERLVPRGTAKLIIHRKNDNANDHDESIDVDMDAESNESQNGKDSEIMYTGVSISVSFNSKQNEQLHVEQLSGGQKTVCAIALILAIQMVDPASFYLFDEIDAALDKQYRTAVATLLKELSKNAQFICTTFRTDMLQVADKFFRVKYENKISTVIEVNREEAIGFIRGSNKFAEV

T2: S. cerevisiae Rad21 (Scc1), recombinant (the Rad21 chain of m1) (S. cerevisiae) (UniProt Q12158)
T2 sequence: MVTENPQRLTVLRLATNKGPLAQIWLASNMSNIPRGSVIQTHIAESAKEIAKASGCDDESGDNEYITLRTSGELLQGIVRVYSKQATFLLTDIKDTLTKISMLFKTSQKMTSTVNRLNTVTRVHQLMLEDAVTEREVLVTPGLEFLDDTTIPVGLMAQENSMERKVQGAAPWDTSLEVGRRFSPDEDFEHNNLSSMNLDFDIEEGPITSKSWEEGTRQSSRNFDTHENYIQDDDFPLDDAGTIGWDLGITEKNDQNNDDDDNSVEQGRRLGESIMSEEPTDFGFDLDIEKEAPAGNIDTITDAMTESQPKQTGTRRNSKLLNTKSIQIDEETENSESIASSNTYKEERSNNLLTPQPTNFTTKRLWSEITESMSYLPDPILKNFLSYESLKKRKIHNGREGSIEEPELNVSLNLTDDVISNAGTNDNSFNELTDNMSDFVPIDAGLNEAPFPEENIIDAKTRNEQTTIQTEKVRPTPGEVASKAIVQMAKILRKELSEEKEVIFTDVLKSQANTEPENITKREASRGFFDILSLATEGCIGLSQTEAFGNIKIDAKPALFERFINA

B1: S. cerevisiae Scc2, recombinant (the Scc2 chain of m2) (protein, UniProt Q04002 1-1493)
chain: MSYPGKDKNIPGRIIEALEDLPLSYLVPKDGLAALVNAPMRVSLPFDKTIFTSADDGRDVNINVLGTANSTTSSIKNEAEKERLVFKRPSNFTSSANSVDYVPTNFLEGLSPLAQSVLSTHKGLNDSINIEKKSEIVSRPEAKHKLESVTSNAGNLSFNDNSSNKKTKTSTGVTMTQANLAEQYLNDLKNILDIVGFDQNSAEIGNIEYWLQLPNKKFVLTTNCLTKLQMTIKNITDNPQLSNSIEITWLLRLLDVMVCNIKFSKSSLKMGLDDSMLRYIALLSTIVLFNIFLLGKNDSNLHRESYIMEPVNFLSDLIESLKILTIEYGSLKIEFDTFQEALELLPKYIRNGPFLDDNVTAKLVYIFSDLLMNNDIEATTNIQFQSFWDNVKRISSDILVSLFGSFDQQRGFIIEELLSHIEKLPTKRIQKKLRKVGNQNIYITDFTFTLMSMLENINCYSFCNQMKDIAPENIDLLKNEYKKQEEFLFNIVEHINDTILERFFKNPSALRYVIDNFVQDLLLLISSPQWPVTEKILSSLLKRLLSVYSPSMQVSANIETICLQLIGNIGSTIFDIKCSTRDHEDNNLIKMINYPETLPHFFKSFEECIAYNETIKCRRSATRFLWNLRLGTILILEEYTKDAKEQIITVDNELKKILEQIKDGGLGPELENREADFSTIKLDYFSILHAFELLNLYDPYLKLILSLLAKDKIKLRSTAIKCLSMLASKDKVILSNPMVKETIHRRLNDSSASVKDAILDLVSINSSYFEFYQQINNNYNDDSIMVRKHVLRINEKMYDETNDIVTKVYVIARILMKIEDEEDNIIDMARLILLNRWILKVHEVLDQPEKLKEISSSVLLVMSRVAIMNEKCSQLFDLFLNFYLLNKEAHSKEAYDKITHVLTILTDFLVQKIVELNSDDTNEKNSIVDKQNFLNLLAKFADSTVSFLTKDHITALYPYMVSDEKSDFHYYILQVFRCTFEKLANFKQKFLYDLETTLLSRLPKMNVREIDEAMPLIWSVATHRHDTARVAKACSSCLSHLHPYINKANNEEAAIVVDGKLQRLIYLSTGFARFCFPKPSNDKIAFLQEGETLYEHITKCLLVLSKDKITHVIRRVAVKNLTKLCGNHPKLFNSRHVLHLLDKEFQSDQLDIKLVILESLYDLFLLEERKSVRNTGVNSTLSSNSILKKKLLKTNRVEFANDGVCSALATRFLDNILQLCLLRDLKNSLVAIRLLKLILKFGYTNPSHSIPTVIALFASTSQYIRHVAYELLEDLFEKYETLVFSSLSRGVTKAIHYSIHTDEKYYYKHDHFLSLLEKLCGTGKKNGPKFFKVLKRIMQSYLDDITDLTSTNSSVQKSIFVLCTNISNITFVSQYDLVSLLKTIDLTTDRLKEVIMDEIGDNVSSLSVSEEKLSGIILIQLSLQDLGTYLLHLYGLRDDVLLLDIVEESELKNKQLPAKKPDISKFSAQLENIEQYSSNGKLLTYFRKHVKDT
B2: S. cerevisiae Scc3, recombinant (the Scc3 chain of m1) (protein, UniProt P40541 1-1150)
chain: MTAVRRSTRIRTKSQVIEEDYDDEQNTSAQHVESDKITAKTQHEEEEEQDTGESEESSSEDDYEDQDDDDYVDTATAKRKSRKRKPKSASNTSSKRQKKKPTSAQKSAVSHAPAYHRSKKDQDQYLEIAKDFQPTELFDILSTSEDVSIEELLREWLETYSENRDKFLQEFINLLLNCCGSVARVEDHDVHSNESSNETIGEIQLLFQRQKLHEFYLLISKENKKRKNFKMGPLYQNFAEFMTKLLEVANDLQLLYVESDEDDTQIVTGNLVLDLLTWLSSFSVCKIRCFRYISTLTLYLFQDYLTQQAVNLEKNYLAKLSKQLSLEEKKKRPNNKTLEKLESTIAETQGSKVVIDSIIDNIVKLCFVHRYKDVSDLIRSESMLHLSIWIKNYPEYFLKVTFLKYFGWLLSDNSVSVRLQVTKILPHLIIQNHNSKSTDNSAIRQVFERFKTKILEVAIRDVNLDVRIHSIQVLTEASSLGYLDDSEILIISSLMFDEEFDPFKTSSFNKRSKFLSTVAKFLARVIKEKFDEFIKTHEDLPKEVDGLEVGPVVQVGIFIKILNDSLIYHLKDCAEVDSRTKIRMLTQAAEFLSPYISTHLKTICNLLISDTESNELIQKLQNSANNNSDDEDVDDEELDITPLFPIDRNSTILYLNVFHGLCAGANNPKIQTKDSVKEIVLPLFYDLLNAASIESADILCPLLESFITFSLDDWISIGYETELKKITDKTIKAFMDSTIGNSKVDMKYDIFAKFIHHIHHFEKKELQEKFLNQIATLKIHLKKFLQEKMDPNNSRDDYKDLTCSLYELYINKLTILGRDYPIEVDEELLQLFLNNFVSRIPIMFQDFDDSTAQEINFKMLVLLATWNLEKWREIIEKVRDYENSISKDLRSVWKPIAAIIGRLNTLVISLAATNETFENINSLFYLKWSACTSLMDIIVAIKIFELKLPADATTWRYSMSEQFPFYLHDNASKVLLKIFLYLESLFAKQVDVQLERVADEDANLNDLPETGFFENIETEFLLFTVKLKGLMKLNILDERFASRVALNKEKLGPLFKKIVDDTIMENPEPNKKNIQKAKSNQTQREKAPLQPNSERETDHANTENNDPDIPMTIDLEPIEESSQNNSELAPIEEHPTVVDAIDNSDEITQD

How the values were obtained:
[1] = target: T1, S. cerevisiae Smc3, recombinant (the Smc3 chain of m1) (S. cerevisiae); test: cross-linking; XL-MS: 0.4 μM cohesin, 0.8 μM full-length Scc2–Scc4 and 0.8 μM 56-bp dsDNA in 20 mM HEPES pH 7.5, 50 mM NaCl, 5 mM DTT, 5 mM MgCl2, 1 mM ATP, 10% glycerol; 5–8 mM d0/d12 DSS, 28 °C 40 min; xQuest/xProphet, FDR 1%; both purified
[2] = target: T2, S. cerevisiae Rad21 (Scc1), recombinant (the Rad21 chain of m1) (S. cerevisiae); test: co-purification; Smc1, Smc3, Rad21 (N-terminal double Strep-tag II) and Scc3 co-expressed in Sf21 cells; Strep-Tactin, anion exchange Porous Q, Superose 6 SEC; final buffer 20 mM HEPES pH 7.5, 500 mM NaCl, 2 mM MgCl2, 0.5 mM TCEP

Row | Binder | binding [1] | binding [2]
1 | B1 | binds | 
2 | B2 |  | binds
